# Measured values from the supplement of paper PMC10338343.
# ± gives the standard deviation. The entries are a selection whose mix differs from that of the whole data set. Many entries were measured with a wide error.
# Test system: EfPiwi piRISC loaded with piRNA #1 (26 nt)
# Assay: pre-steady-state target cleavage rate (min^-1); guide: piRNA #1 5'p-UGAGGUAGUAGGUUGUAUAGUAUCCA; MIWI and MILI are mouse PIWI proteins and EfPiwi is from a freshwater sponge; tags in brackets are library labels; higher = faster piRNA-guided slicing of the target
# Conditions: auxiliary factor: 500 nM Ephydatia muelleri Gtsf1
# Procedure, shortened: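 Three pooled Cleave-'n-Seq trials supplied the data, with k3 capped at 0.0001 min^-1. In each, […] transcribed, DNA-blocked target RNA library and 1 nM active affinity-purified piRISC with one synthetic guide reacted in HEPES–potassium acetate buffer at 33 °C for 0–8 or 0–960 min, with or without 500 nM GTSF1 partner protein. Uncleaved targets were sequenced and normalised to depth and to weakly complementary targets. A burst-and-steady-state fit provided the pre-steady-state cleavage rate.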
row,Sequence,pre-steady-state target cleavage rate
1,GGAGUGGAUACUAUACAACCAACAACCUCA,0.00217 ± 0.0016
2,GGAGACCUAUGUAUACAUGCUACUACCUCA,0.00156 ± 0.0076
3,GGAGACCUUACUAUACAAGGUACUACCUCA,0.0022 ± 0.0022
4,GGAGAGGAUACGAUACAACCUACUACCUCA,0.00899 ± 0.0037
5,GGAGUGCAUACAAUACAACCUACUACCUCA,0.0102 ± 0.0044
6,GGAGACCUUACUAUACAUGGUACUACCUCA,0.000744 ± 0.0079
7,GGAGACCUUACUAUACAACCAACUACGUCA,0.00103 ± 0.0039
8,GGAGAGGAUUCUAUACAACCUACUAGCUCA,0.00109 ± 0.003
9,GGAGACCUAUCUAUACAACCUACGUACCUCA,0.00113 ± 0.0086
10,GGAGACCUUACUAUUCAACGUACUACCUCA,0.00226 ± 0.0041
11,GGAGACGAUAGUAUACAACGUACUACCUCA,0.00208 ± 0.0029
12,GGAGACCUUACUAUACUACCUACUACCUGA,0.00187 ± 0.005
13,GGAGACCAUACUUUACAACCUACUUCCUCA,0.00404 ± 0.0039
14,GGAGACCUAACUAUCACAACCUACUACCUCA,0.00495 ± 0.0033
15,GGAGACCUUACUAUACAACCUACAACCACA,0.00139 ± 0.0079
16,GGAGACCUAACAAUACAACCUAGUACCUCA,0.00204 ± 0.0036
17,GGAGACCAUACUAUACAACCUACUCCCUCA,0.00669 ± 0.0039
18,GGAGACCUAUGUUUACAACCUACUACGUCA,0.00132 ± 0.0044
19,GGAGUGGAUACUAUACAACGUACUACCUGA,0.00457 ± 0.0015
20,GGAGACCUAACUACUACAACCUACUACCUCA,0.00946 ± 0.0059
21,GGAGACCUAUCUAUACAACCAACUUCCUCA,0.00147 ± 0.0058
22,GGAGACCUAUCUAUACAACCUACUAUCUCA,0.00591 ± 0.004
23,GGAGACGAUACUAUACAACCUAGUACCUCA,0.00506 ± 0.0014
24,GGAGUGGAUACUUUACAACCAACUACCUCA,0.00219 ± 0.0023

# Two entries from above, reformatted:
row	Sequence	pre-steady-state target cleavage rate
19	GGAGUGGAUACUAUACAACGUACUACCUGA	0.00457 ± 0.0015
24	GGAGUGGAUACUUUACAACCAACUACCUCA	0.00219 ± 0.0023
